Results from patent US20240182513A1, “SEPARATION OF METAL IONS FROM A SAMPLE USING GLYCOLIPIDS” (ARIZONA BOARD OF REGENTS ON BEHALF OF THE UNIVERSITY OF …, priority 2021, published 2024).

Assay: Example 2.2 glycolipid facilitated chemical precipitation: lanthanum
Conditions: La^3+-xylolipid reactions, no further treatment
Method: Nine different structural variants were selected to examine the effect of the headgroup and number and length of the hydrophobic tail(s) on glycolipids as a chemical precipitant (Table 6). These solutions were made in advance and stored at 4° C. for up to one month and brought to room temperature (˜25° C.) before each experiment.
Each metal (Pb^2+, La^3+, and Mg^2+) was evaluated separately with each of the nine glycolipids. […] The reactions were mixed in the order of nanopure water (≥18 MΩ-cm), glycolipid solution, then metal solution. The metal and glycolipid solutions were continuously stirred as they were aliquoted into the reaction tubes. All experiments were performed in triplicate.
The reaction tubes were rotated overnight (16 to 24 h) and then three samples were collected from each tube to measure metal removal from solution: (1) no further treatment; (2) an additional filtration step; and (3) an additional centrifugation step. Briefly, for the glycolipid adsorption treatment samples all tubes were vortexed for approximately 5 sec immediately before sampling to ensure that non-adsorbed glycolipid-metal complexes were mixed into the solution column. After mixing, 0.1 ml of the reaction solution was aliquoted into a dilution tube of 2% trace metal grade nitric acid for analysis. […]
Samples for the filtration treatment were vortexed for 5 sec, then a 0.6 ml aliquot was collected with a 1 ml syringe. […] Following collection, the metal content in all samples was analyzed at the Arizona Laboratory for Emerging Contaminants (ALEC) at the University of Arizona using inductively coupled plasma mass spectrometry.
R was determined by comparing the solution metal concentration of the treatment sample (Cnt for the glycolipid with no further treatment sample, Cf for the glycolipid and filtration sample, and Cc for the glycolipid and centrifugation sample) to the solution metal concentration of a glycolipid-free control (Ci) that underwent the same handling and processing steps. […]

Compound	visual observation of precipitation (2:1 ratio)	visual observation of precipitation (5:1 and 10:1 ratios)	visual observation of precipitation (all molar ratios)
CCCCCCCCCCCC(CC(=O)O)OC(=O)CC(CCCCCCCCCCC)OC1OC[C@@H](O)[C@H](O)[C@H]1O (stereo partly drawn) [Xyl-C14-C14]	clear solution	precipitation on the reaction tube surfaces	
CCCCCCCCCCCC(CC(=O)O)OC1OC[C@@H](O)[C@H](O)[C@H]1O (stereo partly drawn) [Xyl-C14]			clear solution
